Test results as given in PubChem BioAssay AID504847 (National Center for Advancing Translational Sciences (NCATS), 2011).
Hit rate of the full screen: of about 400,000 compounds, about 3,700 (0.93%) were called active. Inconclusive results, whose numbers are uncertain, are shown with a selection of clear calls. Calls follow the shape of the dose curve; as a rule, active = well fitted inhibition curve with a large enough effect; inconclusive = small, poorly fitted or top-dose-only effect, or another doubt; inactive = no such curve, though single readings can be large or run the other way. Potencies beside an inconclusive call are fits to weak or partial responses and may not hold up.

By UniProt entry, the sequences of proteins in these tests, tags left out. Where a name states a change or a piece, a line headed by the entry shows the natural chain unless it says otherwise.
UniProt P11473: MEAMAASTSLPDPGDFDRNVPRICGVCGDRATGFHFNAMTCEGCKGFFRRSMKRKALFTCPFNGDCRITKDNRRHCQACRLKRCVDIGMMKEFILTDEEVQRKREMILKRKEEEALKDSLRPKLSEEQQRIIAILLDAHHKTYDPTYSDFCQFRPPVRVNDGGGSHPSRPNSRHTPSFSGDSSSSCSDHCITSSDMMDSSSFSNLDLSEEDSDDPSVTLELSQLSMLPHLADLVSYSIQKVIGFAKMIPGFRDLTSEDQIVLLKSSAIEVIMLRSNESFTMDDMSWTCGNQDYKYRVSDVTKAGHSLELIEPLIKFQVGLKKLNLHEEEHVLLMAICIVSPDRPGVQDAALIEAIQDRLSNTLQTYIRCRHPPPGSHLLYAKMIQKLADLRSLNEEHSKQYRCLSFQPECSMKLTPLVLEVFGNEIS

Target: Vitamin D3 receptor (Homo sapiens) (UniProt P11473)
Experiment: Inhibitors of the vitamin D receptor (VDR): qHTS
Conditions: VDR-SRC2-3 peptide fluorescence polarization, 2 h; max response, negative = inhibition: active compounds read low
Method in brief: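 Fluorescence polarization assay measuring small-molecule disruption of VDR binding to the coregulator peptide SRC2-3. Compounds were pin-transferred (23 nl) into the reagent mix and incubated 2 h at room temperature before reading.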
% is scaled to controls: 0 for no effect and ±100 for the full control effect; potency is read from the fitted curve at half-maximal effect.

SMILES | Potency | max response, negative = inhibition
COc1cc(/C=C(/C(=O)c2cccs2)c2nc3ccccc3[nH]2)cc(OC)c1O | active: 50.1 µM | 
CN(C)S(=O)(=O)c1ccc(C(=O)OCC(=O)c2csc(N3CCCCC3)n2)cc1 | inconclusive: 89.1 µM [inhibitor, single point] | 
CCOC(=O)c1cc2c(=O)n3cccc(C)c3nc2n(CCCOC)c1=NC(=O)c1cccnc1 |  | inactive: -5.59%
COC(=O)C1C(O)CC[C@H]2CN3CCc4c([nH]c5ccccc45)C3C[C@H]12 (stereo partly drawn) |  | inactive: 29.3%
O=C1COc2ccc(-c3cc(-c4ccc(F)cc4)c4c(n3)-c3cc(Cl)ccc3OC4)cc2N1 |  | inactive: -16.4%
CCOC(=O)C1CCN(C(=O)Cc2ccccc2OC)CC1 |  | inactive: -2%
Cc1nnc(SCC(=O)Nc2ccc(N3CCN(S(C)(=O)=O)CC3)cc2)o1 | inconclusive: 89.1 µM [inhibitor, single point] | 
CCN1CCN(C(c2cccs2)C(C)NC(=O)c2cccc(OC)c2)CC1 (stereo not drawn) | inconclusive: 12.6 µM [inhibitor, partial curve, poor fit] | 
O=C(Nc1ccc(N2CCCC2)cc1)c1ccccc1[N+](=O)[O-] |  | inactive: -17.1%
COc1cc(C(=O)ON=C2C(C)=CC(=O)C=C2C)cc(OC)c1OC | active: 89.1 µM | 
CC(C(=O)Nc1ccccc1C(F)(F)F)n1nnc2sc3c(c2c1=O)CCCC3 (stereo not drawn) |  | inactive: 6.75%
CC1=CC(=O)C2=C(C)CC[C@H]3[C@H](C)C(=O)O[C@@H]3C12 (stereo partly drawn) |  | inactive: 4.06%
O=C1CCCC2=C1C1(O)C(=O)c3ccccc3C1(O)O2 (stereo not drawn) | inconclusive: 3.55 µM [inhibitor, partial curve, poor fit] | 
c1ccc(COc2ccc(OCCCN3CCCC3)cc2)cc1 |  | inactive: -20.1%
CCn1c(C)cs/c1=N\S(=O)(=O)c1ccccc1 |  | inactive: -23%
COc1ccc(S(=O)(=O)Nc2cccc3c2O[C@H](CN(C)C(=O)NC2CCCCC2)[C@@H](C)CN([C@H](C)CO)C3=O)cc1 | inconclusive: 79.4 µM [inhibitor, partial curve, poor fit] | 
NC(=O)c1cc([N+](=O)[O-])c(Cl)cc1NCc1ccncc1 |  | inactive: 1.91%
Clc1ccccc1CSc1nnc(-c2ccco2)c(-c2ccco2)n1 | inconclusive: 63.1 µM [inhibitor, partial curve, poor fit] | 
O=[N+]([O-])c1cc2oc3c(c2c(C=NCc2ccncc2)c1O)CCCC3 | inconclusive: 56.2 µM [inhibitor, partial curve, poor fit] | 
CCc1ccc(C(c2ccccc2)c2c[nH]c3ccc(C)cc23)s1 (stereo not drawn) | inconclusive: 89.1 µM [inhibitor, single point] | 
COC(=O)c1ccc(/C=C/C(=O)c2cccc(OC)c2)cc1 | active: 22.4 µM | 
COc1ccc(N2C(=NC(=O)C3CCCCC3)SC3CS(=O)(=O)CC32)c(OC)c1 (stereo not drawn) | inconclusive: 22.4 µM [inhibitor, partial curve, poor fit] | 

Taken from above:
`CCn1c(C)cs/c1=N\S(=O)(=O)c1ccccc1` | max response, negative = inhibition: inactive: -23%
`O=C1CCCC2=C1C1(O)C(=O)c3ccccc3C1(O)O2` (stereo not drawn) | Potency: inconclusive: 3.55 µM [inhibitor, partial curve, poor fit]

Further results follow:

SMILES | Potency | max response, negative = inhibition
Cc1ccccc1N=Cc1cccc(O)c1O | active: 14.1 µM | 
Cc1c(Br)c(O)c(Br)c2sc(=O)oc12 | inconclusive: 22.4 µM [inhibitor, single point] | 
COc1cccc(NC2=C(C#N)C(=O)NC(c3cccc(OC)c3O)S2)c1 (stereo not drawn) | inconclusive: 56.2 µM [inhibitor, partial curve, poor fit] | 
NC(C(=O)O)C(O)c1ccc(O)c(O)c1 (stereo not drawn) | inconclusive: 50.1 µM [inhibitor, single point] | 
COc1ccc(S(=O)(=O)/N=C2\C=C(NS(=O)(=O)c3ccccc3)C(=O)c3ccccc32)cc1 | inconclusive: 44.7 µM [inhibitor, partial curve] | 
Cc1ccc(NC(=O)C2=NNC(=O)CC2)cc1S(=O)(=O)Nc1ccc(SC(F)F)cc1 | inconclusive: 89.1 µM [inhibitor, single point] | 
CN(C(=O)COC(=O)c1ccc(=O)n(Cc2ccccc2)n1)c1ccccc1 | inconclusive: 39.8 µM [inhibitor, single point] | 
CC(C)Cn1c(SCC(=O)N2CCCc3ccccc32)nc2ccccc2c1=O |  | inactive: -7.54%
Cc1[nH]c(=O)c(C(=O)/C=C/c2ccccc2F)c2c1CCCC2 | inconclusive: 70.8 µM [inhibitor, partial curve, poor fit] | 
COc1cccc(NS(=O)(=O)c2ccc3[nH]cc(C(=O)NC(C)c4ccccc4)c(=O)c3c2)c1 (stereo not drawn) | inconclusive: 56.2 µM [inhibitor, partial curve, poor fit] | 
S=C(Nc1ccc(Cl)cc1Cl)Nn1cnnc1 | inconclusive: 56.2 µM [inhibitor, partial curve, poor fit] | 
N=C1/C(=C\c2ccc(SCc3ccccc3)o2)C(=O)N=C2SC=NN12 | inconclusive: 8.91 µM [inhibitor, partial curve, poor fit] | 
CCCCN(C)CCCNC(=O)c1cn(C)c2ccc(S(=O)(=O)N(C)C3CCCCC3)cc2c1=O | inconclusive: 89.1 µM [inhibitor, partial curve, poor fit] | 
CN(C)S(=O)(=O)c1ccc(C(=O)OCC(=O)NCc2ccco2)cc1 |  | inactive: 8.2%
C=CCOc1cccc(/C=C\c2nc(O)c([N+](=O)[O-])c(=O)[nH]2)c1 | active: 14.1 µM | 
CC(=O)C(Cl)C(=O)Nc1ccccc1 (stereo not drawn) | active: 14.1 µM | 
COC(=O)C(=Cc1ccc(-c2ccsc2C(=O)OC)o1)C(=O)OC | inconclusive: 39.8 µM [inhibitor, partial curve, poor fit] | 
O=C(NC(=S)NNC(=O)c1cc2ccccc2cc1O)c1ccco1 | inconclusive: 89.1 µM [inhibitor, single point] | 
COc1ccc(-c2cc(C(=O)NCc3cccnc3)no2)cc1OC | inconclusive: 100 µM [inhibitor, single point] | 
CCN(CC)c1ccc(NC(=S)NC(=O)c2ccco2)cc1 | active: 79.4 µM | 
COC(=O)Nc1sc2c(c1C(=O)N1CCOCC1)CCC(C)C2 (stereo not drawn) | inconclusive: 56.2 µM [inhibitor, partial curve, poor fit] | 
